Test results reported in PubChem BioAssay AID192 (DTP/NCI, 2004).
The list does not hold the whole screen: it gathers some chemical classes. Not every dose and run of a compound is shown. T/C: endpoint of the treated group in % of that of the vehicle group. Where survival is the endpoint, the PubChem record calls one and a half times the control and up active, and a quarter to a half above the control has no call in these data; cut-offs in other NCI protocols can differ. Some entries show no survivor count and are marked so; the dose need not have been tolerated. Schedules are NCI's codes, read here as Q, the interval in days (D) or hours (H), X, the number of doses. Some entries hold several experiments; the values are given in rising order.

Test system: BDF1 mice, B16 melanoma ip, median survival T/C
Experiment: NCI In Vivo Anticancer Drug Screen. Data for tumor model B16 Melanoma (intraperitoneal) in B6D2F1 (BDF1) mice
Settings: T/C endpoint: median survival time, higher T/C = longer survival
Procedure: The antitumor activity of compounds was measured in mice bearing transplantable tumors. Survival or tumor size were measured and the results are expressed as the measurement made in the treated group (T) divided by the measurement made in the vehicle treated control group (C). The tumor model used in this assay is B16 Melanoma (intraperitoneal) in B6D2F1 (BDF1) mice

Compound: Cc1cc(C)cc(CN(CCCl)CCCl)c1
- T/C (dose: 0.5 mg/kg/injection, schedule: Q01DX009 (ip), vehicle: saline): 93 % of control [survivor count not shown]
- T/C (dose: 0.75 mg/kg/injection, schedule: Q01DX009 (ip), vehicle: saline): 131 % of control [survivor count not shown]
- T/C (dose: 1.0 mg/kg/injection, schedule: Q01DX009 (ip), vehicle: saline): 95 % of control [survivor count not shown]
- T/C (dose: 1.5 mg/kg/injection, schedule: Q01DX009 (ip), vehicle: saline): 155 % of control [survivor count not shown]
- T/C (dose: 2.0 mg/kg/injection, schedule: Q01DX009 (ip), vehicle: saline): 119 % of control [survivor count not shown]
- T/C (dose: 3.13 mg/kg/injection, schedule: Q01DX009 (ip), vehicle: saline with Tween-80): 150 % of control [survivor count not shown]
- T/C (dose: 3.13 mg/kg/injection, schedule: Q04DX003 (ip), vehicle: saline): 113 % of control [survivor count not shown]
- T/C (dose: 4.0 mg/kg/injection, schedule: Q01DX009 (ip), vehicle: saline): 152 % of control [survivor count not shown]
- T/C (dose: 6.0 mg/kg/injection, schedule: Q01DX009 (ip), vehicle: saline): 134 [survivor count not shown] and 176 % of control [survivor count not shown]
- T/C (dose: 6.25 mg/kg/injection, schedule: Q01DX009 (ip), vehicle: saline with Tween-80): 167 % of control [survivor count not shown]
- T/C (dose: 6.25 mg/kg/injection, schedule: Q04DX003 (ip), vehicle: saline): 118 % of control [survivor count not shown]
- T/C (dose: 9.0 mg/kg/injection, schedule: Q01DX009 (ip), vehicle: saline): 178 % of control [survivor count not shown]
- T/C (dose: 12.5 mg/kg/injection, schedule: Q04DX003 (ip), vehicle: saline): 136 % of control [survivor count not shown]
